Assay results taken from the supplement of paper PMC7661543.
± gives the standard deviation of the averaged measurements. Differences between knockout arms are mostly noise.

Test system: BT-20
Test: relative cell number vs DMSO control (72 h) (% of DMSO); higher = less growth inhibition (more cells)
Description: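 QMAP-Seq: a pool of 5 breast cancer cell lines (ZR-75-1, SKBR3, HCC-38, MDA-MB-231, BT-20), each carrying 12 doxycycline-inducible Cas9 sgRNA perturbations (11 knockouts plus non-targeting sgNT), was treated with compounds for 72 h at four 10-fold doses (10 nM-10 uM or 1 nM-1 uM range). Barcodes were amplified and sequenced, and cell number was interpolated from 293T spike-in standard curves. The result is expressed as % of the median of DMSO wells. Two biological replicates.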

CCc1c2c(nc3ccc(O)cc13)-c1cc3c(c(=O)n1C2)COC(=O)[C@]3(O)CC [SN38]
Conditions	relative cell number
sgRNA knockout: sgATF3, 1 nM	96 ± 11
sgRNA knockout: sgATF3, 10 nM	79.5 ± 15
sgRNA knockout: sgATF3, 100 nM	38.7 ± 4.2
sgRNA knockout: sgATF3, 1000 nM	32.1 ± 6.6
sgRNA knockout: sgATF4, 1 nM	98.6 ± 22
sgRNA knockout: sgATF4, 10 nM	96.2 ± 16
sgRNA knockout: sgATF4, 100 nM	41.4 ± 12
sgRNA knockout: sgATF4, 1000 nM	28.8 ± 2
sgRNA knockout: sgATF6, 1 nM	86.8 ± 11
sgRNA knockout: sgATF6, 10 nM	72.1 ± 1
sgRNA knockout: sgATF6, 100 nM	37.4 ± 6.6
sgRNA knockout: sgATF6, 1000 nM	33.7 ± 3.9
sgRNA knockout: sgATG7, 1 nM	108 ± 13
sgRNA knockout: sgATG7, 10 nM	80.1 ± 4.5
sgRNA knockout: sgATG7, 100 nM	39.9 ± 1.1
sgRNA knockout: sgATG7, 1000 nM	32 ± 17
sgRNA knockout: sgERN1, 1 nM	97.9 ± 19
sgRNA knockout: sgERN1, 10 nM	84 ± 0.91
sgRNA knockout: sgERN1, 100 nM	38.1 ± 9.5
sgRNA knockout: sgERN1, 1000 nM	28 ± 6.2
sgRNA knockout: sgHSF1, 1 nM	85.6 ± 9.1
sgRNA knockout: sgHSF1, 10 nM	81.7 ± 5.1
sgRNA knockout: sgHSF1, 100 nM	43.6 ± 2.5
sgRNA knockout: sgHSF1, 1000 nM	29.5 ± 2.1
sgRNA knockout: sgHSF2, 1 nM	79.3 ± 13
sgRNA knockout: sgHSF2, 10 nM	80 ± 14
sgRNA knockout: sgHSF2, 100 nM	41.8 ± 18
sgRNA knockout: sgHSF2, 1000 nM	28.3 ± 3
sgRNA knockout: sgKEAP1, 1 nM	99.5 ± 4.9
sgRNA knockout: sgKEAP1, 10 nM	83.1 ± 15
sgRNA knockout: sgKEAP1, 100 nM	43.4 ± 3.6
sgRNA knockout: sgKEAP1, 1000 nM	33 ± 5.9
sgRNA knockout: sgNFE2L2, 1 nM	105 ± 1.1
sgRNA knockout: sgNFE2L2, 10 nM	68.7 ± 12
sgRNA knockout: sgNFE2L2, 100 nM	36.4 ± 12
sgRNA knockout: sgNFE2L2, 1000 nM	33.7 ± 12
sgRNA knockout: sgSLC35F2, 1 nM	85.7 ± 9.2
sgRNA knockout: sgSLC35F2, 10 nM	71.8 ± 5.5
sgRNA knockout: sgSLC35F2, 100 nM	37.6 ± 5.4
sgRNA knockout: sgSLC35F2, 1000 nM	31.1 ± 9.8
sgRNA knockout: sgXBP1, 1 nM	107 ± 8.1
sgRNA knockout: sgXBP1, 10 nM	82 ± 0.87
sgRNA knockout: sgXBP1, 100 nM	32.3 ± 3.5
sgRNA knockout: sgXBP1, 1000 nM	32.3 ± 4.5

CC(C)[C@H](O)C(=O)N[C@@H](C)C(=O)N[C@@H]1C(=O)N(C)CCc2ccccc21 [Semagacestat]
Conditions	relative cell number
sgRNA knockout: sgATF3, 10 nM	100 ± 4.4
sgRNA knockout: sgATF3, 100 nM	100 ± 7.2
sgRNA knockout: sgATF3, 1000 nM	90 ± 2.7
sgRNA knockout: sgATF3, 10000 nM	94.7 ± 8.8
sgRNA knockout: sgATF4, 10 nM	104 ± 6.2
sgRNA knockout: sgATF4, 100 nM	111 ± 18
sgRNA knockout: sgATF4, 1000 nM	115 ± 14
sgRNA knockout: sgATF4, 10000 nM	92.2 ± 1.8
sgRNA knockout: sgATF6, 10 nM	101 ± 1.8
sgRNA knockout: sgATF6, 100 nM	95.2 ± 16
sgRNA knockout: sgATF6, 1000 nM	104.4 ± 0.28
sgRNA knockout: sgATF6, 10000 nM	89.7 ± 2.3
sgRNA knockout: sgATG7, 10 nM	118 ± 33
sgRNA knockout: sgATG7, 100 nM	95.8 ± 11
sgRNA knockout: sgATG7, 1000 nM	106 ± 9.8
sgRNA knockout: sgATG7, 10000 nM	89.6 ± 1.9
sgRNA knockout: sgERN1, 10 nM	103 ± 16
sgRNA knockout: sgERN1, 100 nM	93.4 ± 6.8
sgRNA knockout: sgERN1, 1000 nM	92.2 ± 4.7
sgRNA knockout: sgERN1, 10000 nM	94.3 ± 8.3
sgRNA knockout: sgHSF1, 10 nM	103 ± 9.8
sgRNA knockout: sgHSF1, 100 nM	114 ± 9
sgRNA knockout: sgHSF1, 1000 nM	85.6 ± 2.6
sgRNA knockout: sgHSF1, 10000 nM	89.2 ± 5.5
sgRNA knockout: sgHSF2, 10 nM	99.8 ± 18
sgRNA knockout: sgHSF2, 100 nM	88.9 ± 6.7
sgRNA knockout: sgHSF2, 1000 nM	96 ± 14
sgRNA knockout: sgHSF2, 10000 nM	95.7 ± 3.4
sgRNA knockout: sgKEAP1, 10 nM	102 ± 17
sgRNA knockout: sgKEAP1, 100 nM	91.6 ± 7.5
sgRNA knockout: sgKEAP1, 1000 nM	126 ± 2.9
sgRNA knockout: sgKEAP1, 10000 nM	95.13 ± 0.77
sgRNA knockout: sgNFE2L2, 10 nM	89 ± 26
sgRNA knockout: sgNFE2L2, 100 nM	121 ± 14
sgRNA knockout: sgNFE2L2, 1000 nM	99.5 ± 2.9
sgRNA knockout: sgNFE2L2, 10000 nM	101 ± 19
sgRNA knockout: sgSLC35F2, 10 nM	105 ± 10
sgRNA knockout: sgSLC35F2, 100 nM	101 ± 23
sgRNA knockout: sgSLC35F2, 1000 nM	99 ± 24
sgRNA knockout: sgSLC35F2, 10000 nM	89.2 ± 11
sgRNA knockout: sgXBP1, 10 nM	90.61 ± 0.72
sgRNA knockout: sgXBP1, 100 nM	102 ± 22
sgRNA knockout: sgXBP1, 1000 nM	119 ± 18
sgRNA knockout: sgXBP1, 10000 nM	90.02 ± 0.75

O=C1NC(=O)[C@@H](c2cn3c4c(cccc24)CCC3)[C@@H]1c1c[nH]c2ccccc12 [Tivantinib]
Conditions	relative cell number
sgRNA knockout: sgATF3, 10 nM	91.1 ± 3.9
sgRNA knockout: sgATF3, 100 nM	77.1 ± 12
sgRNA knockout: sgATF3, 1000 nM	47.9 ± 10
sgRNA knockout: sgATF3, 10000 nM	36 ± 11
sgRNA knockout: sgATF4, 10 nM	92.5 ± 9.8
sgRNA knockout: sgATF4, 100 nM	89.1 ± 16
sgRNA knockout: sgATF4, 1000 nM	52.3 ± 3.4
sgRNA knockout: sgATF4, 10000 nM	34.1 ± 8.7
sgRNA knockout: sgATF6, 10 nM	89.4 ± 4.4
sgRNA knockout: sgATF6, 100 nM	98.1 ± 8.9
sgRNA knockout: sgATF6, 1000 nM	43.6 ± 2.8
sgRNA knockout: sgATF6, 10000 nM	35.29 ± 0.35
sgRNA knockout: sgATG7, 10 nM	87.4 ± 3
sgRNA knockout: sgATG7, 100 nM	83.1 ± 15
sgRNA knockout: sgATG7, 1000 nM	54.9 ± 7.7
sgRNA knockout: sgATG7, 10000 nM	34.1 ± 1.4
sgRNA knockout: sgERN1, 10 nM	92.5 ± 9.2
sgRNA knockout: sgERN1, 100 nM	92.7 ± 7.3
sgRNA knockout: sgERN1, 1000 nM	46.3 ± 7.3
sgRNA knockout: sgERN1, 10000 nM	30.2 ± 5.5
sgRNA knockout: sgHSF1, 10 nM	92.2 ± 8.8
sgRNA knockout: sgHSF1, 100 nM	89.3 ± 5.8
sgRNA knockout: sgHSF1, 1000 nM	47.8 ± 2
sgRNA knockout: sgHSF1, 10000 nM	29.6 ± 3
sgRNA knockout: sgHSF2, 10 nM	84.3 ± 18
sgRNA knockout: sgHSF2, 100 nM	86.5 ± 1
sgRNA knockout: sgHSF2, 1000 nM	53.2 ± 1.3
sgRNA knockout: sgHSF2, 10000 nM	35.3 ± 11
sgRNA knockout: sgKEAP1, 10 nM	87.1 ± 14
sgRNA knockout: sgKEAP1, 100 nM	84.6 ± 11
sgRNA knockout: sgKEAP1, 1000 nM	41.53 ± 0.31
sgRNA knockout: sgKEAP1, 10000 nM	33.7 ± 11
sgRNA knockout: sgNFE2L2, 10 nM	88.41 ± 0.26
sgRNA knockout: sgNFE2L2, 100 nM	112 ± 15
sgRNA knockout: sgNFE2L2, 1000 nM	55.3 ± 11
sgRNA knockout: sgNFE2L2, 10000 nM	35.6 ± 6.9
sgRNA knockout: sgSLC35F2, 10 nM	93.9 ± 2.3
sgRNA knockout: sgSLC35F2, 100 nM	90.6 ± 24
sgRNA knockout: sgSLC35F2, 1000 nM	46.1 ± 0.54
sgRNA knockout: sgSLC35F2, 10000 nM	35 ± 4.6
sgRNA knockout: sgXBP1, 10 nM	87.6 ± 1.2
sgRNA knockout: sgXBP1, 100 nM	82.48 ± 0.81
sgRNA knockout: sgXBP1, 1000 nM	48.1 ± 2.4
sgRNA knockout: sgXBP1, 10000 nM	30.3 ± 5.5
